From the supplement of paper PMC9254222
Whole data set: some 1,100 compounds, median “Wnt reporter firefly/Renilla luciferase ratio relative to plate median” near 1.1, cut for the highest 2% near 1.6. Only a part is listed here, and it is no random draw.

Test system: HEK293T (UBE3A T485A transfected, BAR Wnt reporter)
Test: Wnt reporter firefly/Renilla luciferase ratio relative to plate median (fold (linear ratio)); higher = more Wnt/beta-catenin reporter activation
Conditions: 24 h
Method in brief: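 Using Fugene 6, HEK293T cells in white 384-well plates (4500 cells/well; DMEM, 10% FBS, 37°C, 5% CO2) were transfected with a BAR firefly luciferase Wnt reporter, TK-Renilla and an expression plasmid. After four hours, robots dosed the chemicals at 0.01–100 uM, and a Dual-Glo luciferase readout followed 24 h later. Per-plate median-centred firefly/Renilla ratios gave Wnt activity, while per-plate median-centred raw Renilla signals gave cell health. Four biological replicates were averaged.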

Row | SMILES | Wnt reporter firefly/Renilla luciferase ratio (concentration: 0.1 uM) | Wnt reporter firefly/Renilla luciferase ratio (concentration: 1 uM) | Wnt reporter firefly/Renilla luciferase ratio (concentration: 10 uM) | Wnt reporter firefly/Renilla luciferase ratio (concentration: 100 uM) | Wnt reporter firefly/Renilla luciferase ratio (concentration: 0.01 uM)
1 | ClC(Cl)(Cl)c1ccccc1 [Benzotrichloride] | 1.29 | 1.13 | 1.23 | 1.52 | 
2 | CN(C)C(=S)SSC(=S)N(C)C [Thiram] |  |  |  |  | 1.62
3 | CCC12COCN1COC2 [5-Ethyl-1-aza-3,7-dioxabicyclo[3.3.0]octane] | 1.03 | 1.12 | 0.987 | 1.47 | 
4 | C[C@]12CCC(=O)C=C1CC[C@@H]1[C@@H]2CC[C@@]2(C)[C@H]1CC[C@]2(C)O [17-Methyltestosterone] | 1.2 | 0.889 | 0.965 | 0.571 | 
5 | c1nc[nH]n1 [1H-1,2,4-Triazole] | 1.01 | 1.02 | 1.16 | 1.07 | 
6 | Clc1ccc(C(Cl)(Cl)Cl)cc1 [4-Chlorobenzotrichloride] |  |  |  | 2.38 | 
7 | CNC(=O)Oc1ccccc1OC(C)C [Propoxur] | 0.968 | 1.02 | 1.11 | 1.19 | 1
8 | CNC(=O)Oc1cccc(N=CN(C)C)c1.Cl [Formetanate hydrochloride] | 0.828 | 0.919 | 1.14 | 1.42 | 0.82
9 | CCCOC/C(=N\c1ccc(Cl)cc1C(F)(F)F)n1ccnc1 [Triflumizole] | 1.65 | 1.53 | 1.91 | 1.72 | 1.29
10 | CSC(=O)c1c(C(F)F)nc(C(F)(F)F)c(C(=O)SC)c1CC(C)C [Dithiopyr] | 1.19 | 1.03 | 1.02 | 0.64 | 1.47
11 | CCC(=O)Nc1ccc(Cl)c(Cl)c1 [Propanil] | 1.71 |  |  |  | 
12 | CCCCC(CC)COC(=O)CCCCC(=O)OCC(CC)CCCC (configuration not stated) [Di(2-ethylhexyl) adipate] | 1.32 | 1.11 | 1.37 | 1.42 | 
13 | CCN(CC)N=O [N-Nitrosodiethylamine] | 1.12 | 1.13 | 1.27 | 1.82 | 
14 | O=C1C2CC=CCC2C(=O)N1SC(Cl)(Cl)Cl (configuration not stated) [Captan] | 1.27 | 1.15 | 1.19 |  | 1.45
15 | CN=C=S [Methyl isothiocyanate] | 1.17 | 1.1 | 1.11 | 1.5 | 1.37
16 | CSC(C)(C)C=NO [Aldicarb oxime] | 1.13 | 1.13 | 1.01 | 1.34 | 
17 | CN(C)c1ccc(C(=O)c2ccc(N(C)C)cc2)cc1 [Michler's ketone] | 0.875 | 0.878 | 0.65 | 0.132 | 

Row | SMILES | Wnt reporter firefly/Renilla luciferase ratio (concentration: 0.1 uM) | Wnt reporter firefly/Renilla luciferase ratio (concentration: 1 uM) | Wnt reporter firefly/Renilla luciferase ratio (concentration: 10 uM) | Wnt reporter firefly/Renilla luciferase ratio (concentration: 100 uM) | Wnt reporter firefly/Renilla luciferase ratio (concentration: 0.01 uM)
18 | CC1=C2C[C@H]3[C@@H](CC=C4C[C@@H](O)CC[C@@]43C)[C@@H]2CC[C@]12O[C@@H]1C[C@H](C)CN[C@H]1[C@H]2C [Cyclopamine] | 1.01 | 0.989 | 0.989 | 0.518 | 
19 | CC(C)(OOC(C)(C)c1ccccc1)c1ccccc1 [Dicumyl peroxide] | 1.15 | 0.998 | 0.968 | 1.39 | 
20 | CCNc1nc(Cl)nc(NC(C)(C)C)n1 [Terbutylazine] | 1.21 | 1.24 | 1.22 | 1.04 | 
21 | CC(C)N(C(=O)SCC(Cl)=C(Cl)Cl)C(C)C [Tri-allate] | 0.999 | 0.912 | 1.16 | 1.43 | 0.896
22 | C=C(C)CN(CC)c1c([N+](=O)[O-])cc(C(F)(F)F)cc1[N+](=O)[O-] [Ethalfluralin] | 1.2 | 1.02 | 1.13 | 1.37 | 0.93
23 | O=[N+]([O-])/N=C1\NCCN1Cc1ccc(Cl)nc1 [Imidacloprid] | 0.767 | 0.918 | 0.826 | 1.06 | 0.739
24 | CCCCNC(=O)OCC#CI [3-Iodo-2-propynyl-N-butylcarbamate] | 0.915 | 1.09 | 1.02 |  | 1.14
25 | C1=CCCC=CCCC=CCC1 [1,5,9-Cyclododecatriene] | 1.17 | 1.13 | 1.25 | 1.6 | 
26 | CC1=NNC(=O)N(/N=C/c2cccnc2)C1 [Pymetrozine] | 0.846 | 0.887 | 0.985 | 1.15 | 1.05
27 | CC(C)(O)C(=O)Nc1ccc([N+](=O)[O-])c(C(F)(F)F)c1 [Hydroxyflutamide] | 0.867 | 1.12 | 1.03 | 0.388 | 
28 | CC1COC(Cn2cncn2)(c2ccc(Oc3ccc(Cl)cc3)cc2Cl)O1 (configuration not stated) [Difenoconazole] | 1.22 | 0.952 | 0.468 | 0.35 | 1.13
29 | CCNP(=S)(OC)O/C(C)=C/C(=O)OC(C)C (configuration not stated) [Propetamphos] | 1.12 | 0.9 | 0.856 | 0.571 | 1.23
30 | CCOc1cc(C(C)(C)C)ccc1C1COC(c2c(F)cccc2F)=N1 (configuration not stated) [Etoxazole] | 1.25 | 1 | 1 | 0.646 | 1.45
31 | [Na+].[O-][Cl+][O-] [Sodium chlorite] | 1.21 | 1.01 | 0.808 | 1.25 | 
32 | CCOP(=O)(OCC)Oc1cc(C)nc(C(C)C)n1 [Diazoxon] | 1.15 | 1.11 | 0.964 | 1.26 | 1.08
33 | CCc1nn(C)c(C(=O)NCc2ccc(C(C)(C)C)cc2)c1Cl [Tebufenpyrad] | 0.632 | 0.279 | 0.218 | 0.51 | 0.583

Another view of some results above:
Row	SMILES	Wnt reporter firefly/Renilla luciferase ratio (concentration: 0.1 uM)	Wnt reporter firefly/Renilla luciferase ratio (concentration: 1 uM)	Wnt reporter firefly/Renilla luciferase ratio (concentration: 10 uM)	Wnt reporter firefly/Renilla luciferase ratio (concentration: 100 uM)	Wnt reporter firefly/Renilla luciferase ratio (concentration: 0.01 uM)
22	C=C(C)CN(CC)c1c([N+](=O)[O-])cc(C(F)(F)F)cc1[N+](=O)[O-] [Ethalfluralin]	1.2	1.02	1.13	1.37	0.93
23	O=[N+]([O-])/N=C1\NCCN1Cc1ccc(Cl)nc1 [Imidacloprid]	0.767	0.918	0.826	1.06	0.739
